This assay deals with T1, aromatase (Rattus norvegicus, UniProt P22443).
T1 construct: ovarian microsomes are obtained from rats treated with pregnant mares serum gonadotropin; from tissue; host or cells: ovarian microsomes of rats treated with pregnant mares serum gonadotropin
T1 sequence (P22443 1-508): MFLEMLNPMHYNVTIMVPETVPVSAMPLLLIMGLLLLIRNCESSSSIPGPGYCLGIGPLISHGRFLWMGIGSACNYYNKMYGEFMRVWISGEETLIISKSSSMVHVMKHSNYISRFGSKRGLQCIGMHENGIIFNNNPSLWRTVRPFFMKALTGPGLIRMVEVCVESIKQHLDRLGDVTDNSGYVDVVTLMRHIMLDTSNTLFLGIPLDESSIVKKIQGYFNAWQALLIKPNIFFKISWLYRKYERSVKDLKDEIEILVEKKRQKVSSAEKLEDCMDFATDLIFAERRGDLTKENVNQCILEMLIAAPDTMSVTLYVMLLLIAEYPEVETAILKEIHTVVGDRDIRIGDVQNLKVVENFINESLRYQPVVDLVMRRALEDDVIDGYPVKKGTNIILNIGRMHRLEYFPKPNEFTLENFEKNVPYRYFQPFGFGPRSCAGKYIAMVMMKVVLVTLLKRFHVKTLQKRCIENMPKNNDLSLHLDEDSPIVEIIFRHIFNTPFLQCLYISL
In words: Aromatase inhibition in the rat ovarian microsome assay. In kind it is biochemical. The conditions noted are these: EC50: concentration required to achieve 50% inhibition of aromatase activity.

As usually defined, the EC50 is the midpoint of the concentration-response curve. With `Clc1ccccc1C(c1ccccc1)(c1ccccc1)n1ccnc1` [1-[α-(2-chlorophenyl)diphenylmethyl]imidazole], a half-maximal response (EC50) required 89 nM.

(Values after patent US4755526A, “Method of inhibiting aromatase” (Eli Lilly and Company, priority 1984, dated 1988).)
